Data reported in patent publication US20190075794A1, “BIODEGRADABLE ANTIMICROBIAL COMPOSITIONS AND USES THEREOF TO COMBAT MICROORGANISMS” (IPABC LTD, priority 2015, published 2019).
For at least one compound, name, drawing or mass did not settle the structure.

System: E. coli
Assay: Assay for antimicrobial activity: test solution incubated with 10^6 CFUs bacteria, neutralised, plated, growth assessed after 24 hours
Type: cell-based
Conditions: 30 min RT; for Growth of E. coli 24 hrs after treatment, L(+)-Lactic Acid: 10^6 CFUs E. coli
Description: • APG: AG6210 (Akzo Nobel Surface Chemistry AB) 60% aqueous solution of a 60:40 mixture of decyl-β-D-glucopyranoside and octyl-β-D-glucopyranoside • Decyl-β-D-glucopyranoside—EC number: 259-218-1; CAS number: 54549-25-6 • Octyl-β-D-glucopyranoside—EC number: 414-420-0; CAS number: 108081-06-7 • ε-polylysine: Zhengzhou Bainafo Co., Ltd. […] L(+)-lactic acid. […] CAS number: 79-33-4 • Neutraliser (NF): 30 ml Tween 80, 30 g saponine, 1 g histidine, 1 g cysteine dissolved in 1000 ml water; sterilised by autoclaving. • RBT 24/7: Residual Barrier Technology. Proprietary antimicrobial surface sanitizer. • Culture media: Oxoid plate count agar (CM0463): […]

[1] = Table 1: L(+)-lactic acid alone, 10^6 CFUs, listed as 50 mM L(+)-Lactic Acid

C[C@H](O)C(=O)O [L(+)-Lactic Acid, L(+)-lactic acid]
Growth of E. coli 24 hrs after treatment, 1:10 dilution of bacterial reaction mixture [1]: +++ | Growth of E. coli 24 hrs after treatment, 1:100 dilution of bacterial reaction mixture [1]: ++ | Growth of E. coli 24 hrs after treatment, 1:1000 dilution of bacterial reaction mixture [1]: ++ | Growth of E. coli 24 hrs after treatment, 1:10 dilution of bacterial reaction mixture (Table 1: L(+)-lactic acid alone, 10^6 CFUs, listed as 100 mM L(+)-Lactic Acid): ++ | Growth of E. coli 24 hrs after treatment, L(+)-Lactic Acid (Table 7: lactic acid alone): +++ | Growth of E. coli 24 hrs after treatment, L(+)-Lactic Acid (Table 8 (repeat of Table 7 experiment): lactic acid alone): +++
